Measurements taken from paper PMC5484543.
No constants are given. Whether binding was seen depends on the method and setting. In cells and extracts the contact can be indirect. Here binding means that the protein was enriched with, or labelled near, the bait; the list need not be complete. Tags and fused reporters may be left off the sequences shown.

T1: 3xFLAG-B12 (UniProt Q9NXW2)
T1 sequence: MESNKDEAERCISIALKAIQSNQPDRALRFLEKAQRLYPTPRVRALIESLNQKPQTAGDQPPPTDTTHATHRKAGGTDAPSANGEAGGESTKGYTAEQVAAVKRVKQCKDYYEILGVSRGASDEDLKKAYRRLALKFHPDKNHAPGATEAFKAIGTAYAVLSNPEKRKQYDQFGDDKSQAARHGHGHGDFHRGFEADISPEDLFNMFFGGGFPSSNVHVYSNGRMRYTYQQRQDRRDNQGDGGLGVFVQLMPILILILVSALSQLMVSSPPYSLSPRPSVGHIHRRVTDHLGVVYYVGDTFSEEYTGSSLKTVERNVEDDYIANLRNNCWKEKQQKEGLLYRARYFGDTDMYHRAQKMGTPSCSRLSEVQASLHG

B1: RPN1 (protein, UniProt P04843 24-607)
chain: ASSEAPPLINEDVKRTVDLSSHLAKVTAEVVLAHLGGGSTSRATSFLLALEPELEARLAHLGVQVKGEDEEENNLEVRETKIKGKSGRFFTVKLPVALDPGAKISVIVETVYTHVLHPYPTQITQSEKQFVVFEGNHYFYSPYPTKTQTMRVKLASRNVESYTKLGNPTRSEDLLDYGPFRDVPAYSQDTFKVHYENNSPFLTITSMTRVIEVSHWGNIAVEENVDLKHTGAVLKGPFSRYDYQRQPDSGISSIRSFKTILPAAAQDVYYRDEIGNVSTSHLLILDDSVEMEIRPRFPLFGGWKTHYIVGYNLPSYEYLYNLGDQYALKMRFVDHVFDEQVIDSLTVKIILPEGAKNIEIDSPYEISRAPDELHYTYLDTFGRPVIVAYKKNLVEQHIQDIVVHYTFNKVLMLQEPLLVVAAFYILFFTVIIYVRLDFSITKDPAAEARMKVACITEQVLTLVNKRIGLYRHFDETVNRYKQSRDISTLNSGKKSLETEHKALTSEIALLQSRLKTEGSDLCDRVSEMQKLDAQVKELVLKSAVEAERLVAGKLKKDTYIENEKLISGKRQELVTKIDHILDAL
B2: SLC25A3 (protein, UniProt Q00325 50-362)
chain: AVEEQYSCDYGSGRFFILCGLGGIISCGTTHTALVPLDLVKCRMQVDPQKYKGIFNGFSVTLKEDGVRGLAKGWAPTFLGYSMQGLCKFGFYEVFKVLYSNMLGEENTYLWRTSLYLAASASAEFFADIALAPMEAAKVRIQTQPGYANTLRDAAPKMYKEEGLKAFYKGVAPLWMRQIPYTMMKFACFERTVEALYKFVVPKPRSECSKPEQLVVTFVAGYIAGVFCAIVSHPADSVVSVLNKEKGSSASLVLKRLGFKGVWKGLFARIIMIGTLTALQWFIYDSVKVYFRLPRPPPPEMPESLKKKLGLTQ
B3: NONO (protein, UniProt Q15233 1-471)
chain: MQSNKTFNLEKQNHTPRKHHQHHHQQQHHQQQQQQPPPPPIPANGQQASSQNEGLTIDLKNFRKPGEKTFTQRSRLFVGNLPPDITEEEMRKLFEKYGKAGEVFIHKDKGFGFIRLETRTLAEIAKVELDNMPLRGKQLRVRFACHSASLTVRNLPQYVSNELLEEAFSVFGQVERAVVIVDDRGRPSGKGIVEFSGKPAARKALDRCSEGSFLLTTFPRPVTVEPMDQLDDEEGLPEKLVIKNQQFHKEREQPPRFAQPGSFEYEYAMRWKALIEMEKQQQDQVDRNIKEAREKLEMEMEAARHEHQVMLMRQDLMRRQEELRRMEELHNQEVQKRKQLELRQEEERRRREEEMRRQQEEMMRRQQEGFKGTFPDAREQEIRMGQMAMGGAMGINNRGAMPPAPVPAGTPAPPGPATMMPDGTLGLTPPTTERFGQAATMEGIGAIGGTPPAFNRAAPGAEFAPNKRRRY
B4: BAP31 (protein, UniProt P51572 1-246)
chain: MSLQWTAVATFLYAEVFVVLLLCIPFISPKRWQKIFKSRLVELLVSYGNTFFVVLIVILVLLVIDAVREIRKYDDVTEKVNLQNNPGAMEHFHMKLFRAQRNLYIAGFSLLLSFLLRRLVTLISQQATLLASNEAFKKQAESASEAAKKYMEENDQLKKGAAVDGGKLDVGNAEVKLEEENRSLKADLQKLKDELASTKQKLEKAENQVLAMRKQSEGLTKEYDRLLEEHAKLQAAVDGPMDKKEE
B5: EMC1 (protein, UniProt Q8N766 23-993)
chain: YEDQVGKFDWRQQYVGKVKFASLEFSPGSKKLVVATEKNVIAALNSRTGEILWRHVDKGTAEGAVDAMLLHGQDVITVSNGGRIMRSWETNIGGLNWEITLDSGSFQALGLVGLQESVRYIAVLKKTTLALHHLSSGHLKWVEHLPESDSIHYQMVYSYGSGVVWALGVVPFSHVNIVKFNVEDGEIVQQVRVSTPWLQHLSGACGVVDEAVLVCPDPSSRSLQTLALETEWELRQIPLQSLDLEFGSGFQPRVLPTQPNPVDASRAQFFLHLSPSHYALLQYHYGTLSLLKNFPQTALVSFATTGEKTVAAVMACRNEVQKSSSSEDGSMGSFSEKSSSKDSLACFNQTYTINLYLVETGRRLLDTTITFSLEQSGTRPERLYIQVFLKKDDSVGYRALVQTEDHLLLFLQQLAGKVVLWSREESLAEVVCLEMVDLPLTGAQAELEGEFGKKADGLLGMFLKRLSSQLILLQAWTSHLWKMFYDARKPRSQIKNEINIDTLARDEFNLQKMMVMVTASGKLFGIESSSGTILWKQYLPNVKPDSSFKLMVQRTTAHFPHPPQCTLLVKDKESGMSSLYVFNPIFGKWSQVAPPVLKRPILQSLLLPVMDQDYAKVLLLIDDEYKVTAFPATRNVLRQLHELAPSIFFYLVDAEQGRLCGYRLRKDLTTELSWELTIPPEVQRIVKVKGKRSSEHVHSQGRVMGDRSVLYKSLNPNLLAVVTESTDAHHERTFIGIFLIDGVTGRIIHSSVQKKAKGPVHIVHSENWVVYQYWNTKARRNEFTVLELYEGTEQYNATAFSSLDRPQLPQVLQQSYIFPSSISAMEATITERGITSRHLLIGLPSGAILSLPKALLDPRRPEIPTEQSREENLIPYSPDVQIHAERFINYNQTVSRMRGIYTAPSGLESTCLVVAYGLDIYQTRVYPSKQFDVLKDDYDYVLISSVLFGLVFATMITKRLAQVKLLNRAWR
B6: COPB2 (protein, UniProt P35606 1-906)
chain: MPLRLDIKRKLTARSDRVKSVDLHPTEPWMLASLYNGSVCVWNHETQTLVKTFEVCDLPVRAAKFVARKNWVVTGADDMQIRVFNYNTLERVHMFEAHSDYIRCIAVHPTQPFILTSSDDMLIKLWDWDKKWSCSQVFEGHTHYVMQIVINPKDNNQFASASLDRTIKVWQLGSSSPNFTLEGHEKGVNCIDYYSGGDKPYLISGADDRLVKIWDYQNKTCVQTLEGHAQNVSCASFHPELPIIITGSEDGTVRIWHSSTYRLESTLNYGMERVWCVASLRGSNNVALGYDEGSIIVKLGREEPAMSMDANGKIIWAKHSEVQQANLKAMGDAEIKDGERLPLAVKDMGSCEIYPQTIQHNPNGRFVVVCGDGEYIIYTAMALRNKSFGSAQEFAWAHDSSEYAIRESNSIVKIFKNFKEKKSFKPDFGAESIYGGFLLGVRSVNGLAFYDWDNTELIRRIEIQPKHIFWSDSGELVCIATEESFFILKYLSEKVLAAQETHEGVTEDGIEDAFEVLGEIQEIVKTGLWVGDCFIYTSSVNRLNYYVGGEIVTIAHLDRTMYLLGYIPKDNRLYLGDKELNIISYSLLVSVLEYQTAVMRRDFSMADKVLPTIPKEQRTRVAHFLEKQGFKQQALTVSTDPEHRFELALQLGELKIAYQLAVEAESEQKWKQLAELAISKCQFGLAQECLHHAQDYGGLLLLATASGNANMVNKLAEGAERDGKNNVAFMSYFLQGKVDACLELLIRTGRLPEAAFLARTYLPSQVSRVVKLWRENLSKVNQKAAESLADPTEYENLFPGLKEAFVVEEWVKETHADLWPAKQYPLVTPNEERNVMEEGKDFQPSRSTAQQELDGKPASPTPVIVASHTANKEEKSLLELEVDLDNLELEDIDTTDINLDEDILDD
B7: HM13 (protein, UniProt Q8TCT9 1-377)
chain: MDSALSDPHNGSAEAGGPTNSTTRPPSTPEGIALAYGSLLLMALLPIFFGALRSVRCARGKNASDMPETITSRDAARFPIIASCTLLGLYLFFKIFSQEYINLLLSMYFFVLGILALSHTISPFMNKFFPASFPNRQYQLLFTQGSGENKEEIINYEFDTKDLVCLGLSSIVGVWYLLRKHWIANNLFGLAFSLNGVELLHLNNVSTGCILLGGLFIYDVFWVFGTNVMVTVAKSFEAPIKLVFPQDLLEKGLEANNFAMLGLGDVVIPGIFIALLLRFDISLKKNTHTYFYTSFAAYIFGLGLTIFIMHIFKHAQPALLYLVPACIGFPVLVALAKGEVTEMFSYEESNPKDPAAVTESKEGTEASASKGLEKKEK
B8: CLCC1 (protein, UniProt Q96S66 19-551)
chain: HDDDWIDPTDMLNYDAASGTMRKSQAKYGISGEKDVSPDLSCADEISECYHKLDSLTYKIDECEKKKREDYESQSNPVFRRYLNKILIEAGKLGLPDENKGDMHYDAEIILKRETLLEIQKFLNGEDWKPGALDDALSDILINFKFHDFETWKWRFEDSFGVDPYNVLMVLLCLLCIVVLVATELWTYVRWYTQLRRVLIISFLFSLGWNWMYLYKLAFAQHQAEVAKMEPLNNVCAKKMDWTGSIWEWFRSSWTYKDDPCQKYYELLLVNPIWLVPPTKALAVTFTTFVTEPLKHIGKGTGEFIKALMKEIPALLHLPVLIIMALAILSFCYGAGKSVHVLRHIGGPESEPPQALRPRDRRRQEEIDYRPDGGAGDADFHYRGQMGPTEQGPYAKTYEGRREILRERDVDLRFQTGNKSPEVLRAFDVPDAEAREHPTVVPSHKSPVLDTKPKETGGILGEGTPKESSTESSQSAKPVSGQDTSGNTEGSPAAEKAQLKSEAAGSPDQGSTYSPARGVAGPRGQDPVSSPCG
B9: Erlin1 (endogenous) (protein, UniProt O75477 1-348)
chain: MNMTQARVLVAAVVGLVAVLLYASIHKIEEGHLAVYYRGGALLTSPSGPGYHIMLPFITTFRSVQTTLQTDEVKNVPCGTSGGVMIYIDRIEVVNMLAPYAVFDIVRNYTADYDKTLIFNKIHHELNQFCSAHTLQEVYIELFDQIDENLKQALQKDLNLMAPGLTIQAVRVTKPKIPEAIRRNFELMEAEKTKLLIAAQKQKVVEKEAETERKKAVIEAEKIAQVAKIRFQQKVMEKETEKRISEIEDAAFLAREKAKADAEYYAAHKYATSNKHKLTPEYLELKKYQAIASNSKIYFGSNIPNMFVDSSCALKYSDIRTGRESSLPSKEALEPSGENVIQNKESTG
B10: PTPLAD1 (protein, UniProt Q9P035 1-362)
chain: MENQVLTPHVYWAQRHRELYLRVELSDVQNPAISITENVLHFKAQGHGAKGDNVYEFHLEFLDLVKPEPVYKLTQRQVNITVQKKVSQWWERLTKQEKRPLFLAPDFDRWLDESDAEMELRAKEEERLNKLRLESEGSPETLTNLRKGYLFMYNLVQFLGFSWIFVNLTVRFCILGKESFYDTFHTVADMMYFCQMLAVVETINAAIGVTTSPVLPSLIQLLGRNFILFIIFGTMEEMQNKAVVFFVFYLWSAIEIFRYSFYMLTCIDMDWKVLTWLRYTLWIPLYPLGCLAEAVSVIQSIPIFNETGRFSFTLPYPVKIKVRFSFFLQIYLIMIFLGLYINFRHLYKQRRRRYGQKKKKIH
B11: UBAC2 (protein, UniProt Q8NBM4 36-344)
chain: HCQKLFVYDLHAVKNDFQIWRLICGRIICLDLKDTFCSSLLIYNFRIFERRYGSRKFASFLLGSWVLSALFDFLLIEAMQYFFGITAASNLPSGFLAPVFALFVPFYCSIPRVQVAQILGPLSITNKTLIYILGLQLFTSGSYIWIVAISGLMSGLCYDSKMFQVHQVLCIPSWMAKFFSWTLEPIFSSSEPTSEARIGMGATLDIQRQQRMELLDRQLMFSQFAQGRRQRQQQGGMINWNRLFPPLRQRQNVNYQGGRQSEPAAPPLEVSEEQVARLMEMGFSRGDALEALRASNNDLNVATNFLLQH

Target: T1, 3xFLAG-B12
Test: affinity purification with mass spectrometry; 3xFLAG-B12 stable Flp-In 293 T-REx cells; digitonin-permeabilised, pellet lysed in 50 mM Hepes pH 7.5, 150 mM NaCl, 1% deoxy Big CHAP; anti-FLAG M2 antibody and Protein G magnetic beads, 4°C; eluted with 3xFLAG peptide; shot gun mass spectrometry; parental cells as control

| Binder | binding |
| --- | --- |
| B1 | binds |
| B2 | binds |
| B3 | binds |
| B4 | binds |
| B5 | binds |
| B6 | binds |
| B7 | binds |
| B8 | binds |
| B9 | binds |
| B10 | binds |
| B11 | binds |
